The assay addresses h-cGAS (Homo sapiens, UniProt Q8N884). The assay is described as follows: RapidFire mass spectrometry (RF-MS) cGAS activity assay, h-cGAS. The note with it: read-out: IC50 h-cGAS.

Sequences of proteins named here, by UniProt entry; tags and fusion partners are left off.
UniProt Q8N884, whole entry: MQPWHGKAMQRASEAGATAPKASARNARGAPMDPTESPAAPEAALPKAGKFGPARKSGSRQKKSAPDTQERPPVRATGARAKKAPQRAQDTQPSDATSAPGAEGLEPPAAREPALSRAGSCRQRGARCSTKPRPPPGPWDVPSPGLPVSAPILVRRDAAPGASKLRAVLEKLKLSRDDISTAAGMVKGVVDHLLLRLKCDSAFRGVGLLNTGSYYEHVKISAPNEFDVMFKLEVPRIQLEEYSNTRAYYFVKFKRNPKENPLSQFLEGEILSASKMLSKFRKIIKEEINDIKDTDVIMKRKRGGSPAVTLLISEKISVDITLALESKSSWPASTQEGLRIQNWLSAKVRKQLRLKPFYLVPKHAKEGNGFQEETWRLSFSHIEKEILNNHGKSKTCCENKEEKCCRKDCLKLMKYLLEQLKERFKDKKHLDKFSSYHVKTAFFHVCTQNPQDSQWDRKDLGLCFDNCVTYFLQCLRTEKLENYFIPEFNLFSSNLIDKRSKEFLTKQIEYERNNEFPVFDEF

A number of entries come with more than one value. This is not the full list of results. An entry can have further records. Values that stand side by side do not match, cause unknown; they may come from other doses, times, organisms or constructs than stated. Bounds are passed on as bounds.

Usually IC50 stands for the concentration at which inhibition is half-maximal. For the molecule `O=C(CO)N1CCc2[nH]c3c(Cl)c(Br)ccc3c2C1` [G086], the half-inhibitory concentration (IC50) was > 39 nM and < 100 nM.
Next, `O=C(CO)N1CCc2[nH]c3c(F)c(Br)ccc3c2C1` [G092]: > 39 nM and < 100 nM.

The values are drawn from paper PMC6529454, “Development of human cGAS-specific small-molecule inhibitors for repression of dsDNA-triggered interferon expression” (Nature Communications, 2019).
